Data reported in article PMC11482726.
These are yes or no findings as the source states them, for the method shown. Binding seen in cells or lysates may run through a third protein. Some binding calls cover weakened binding; strength is not graded here. Tags and fused reporters may be left off the sequences shown.

Target: T1, human IRF3, MYC-tagged, from pXJ41-hIRF3 (human) (UniProt Q14653)
T1 sequence: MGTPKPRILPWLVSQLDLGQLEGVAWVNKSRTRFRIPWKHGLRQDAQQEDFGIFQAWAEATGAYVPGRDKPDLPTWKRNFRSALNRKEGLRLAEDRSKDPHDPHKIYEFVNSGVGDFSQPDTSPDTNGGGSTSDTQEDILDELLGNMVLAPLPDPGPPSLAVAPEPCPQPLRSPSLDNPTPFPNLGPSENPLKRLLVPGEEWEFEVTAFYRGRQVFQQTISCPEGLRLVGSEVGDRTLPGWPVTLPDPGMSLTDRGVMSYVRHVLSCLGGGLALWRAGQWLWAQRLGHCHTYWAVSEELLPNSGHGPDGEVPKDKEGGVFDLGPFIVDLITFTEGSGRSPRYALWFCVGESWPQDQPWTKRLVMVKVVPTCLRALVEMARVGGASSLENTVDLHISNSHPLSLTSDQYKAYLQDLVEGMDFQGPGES
Test: co-IP; HEK-293T cells transfected with pXJ41-hIRF3 or pXJ41 for 24 h; IP with anti-MYC antibody, blot with anti-NONO antibody (endogenous NONO)

B1: NONO, endogenous in HEK-293T cells (protein, UniProt Q15233 1-471)
chain: MQSNKTFNLEKQNHTPRKHHQHHHQQQHHQQQQQQPPPPPIPANGQQASSQNEGLTIDLKNFRKPGEKTFTQRSRLFVGNLPPDITEEEMRKLFEKYGKAGEVFIHKDKGFGFIRLETRTLAEIAKVELDNMPLRGKQLRVRFACHSASLTVRNLPQYVSNELLEEAFSVFGQVERAVVIVDDRGRPSGKGIVEFSGKPAARKALDRCSEGSFLLTTFPRPVTVEPMDQLDDEEGLPEKLVIKNQQFHKEREQPPRFAQPGSFEYEYAMRWKALIEMEKQQQDQVDRNIKEAREKLEMEMEAARHEHQVMLMRQDLMRRQEELRRMEELHNQEVQKRKQLELRQEEERRRREEEMRRQQEEMMRRQQEGFKGTFPDAREQEIRMGQMAMGGAMGINNRGAMPPAPVPAGTPAPPGPATMMPDGTLGLTPPTTERFGQAATMEGIGAIGGTPPAFNRAAPGAEFAPNKRRRY
binding: binds
